The term AC50 denotes the concentration giving half of the maximal activity seen.

This is one part of the list. The main result of the screen is listed elsewhere. These columns were measured beside it and carry no call. The list favours compounds with an active or inconclusive main result. Potencies come from curve fits of mixed quality, noted in brackets.

This passage reports AC50 results from PubChem BioAssay AID445 (National Center for Advancing Translational Sciences (NCATS), 2006).

This assay in a line: IkB Signaling. The settings on record: ABC-DLBCL IkBa-CBG/CBR dual luciferase ratio (green luciferase fused to IkBa over red control in OCI-Ly3 lymphoma cells), 4 h; measured here: control luc red channel unless noted. The procedure, abridged:
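In this assay, an IκBα–CBG68 fusion accumulates when IKK-driven degradation is blocked; native CBR normalizes for cell number. OCI-Ly3 cells were treated 4 h with compound and doxycycline, then green and red light read after Chroma-Glo addition.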
Turning to `COc1ccc(OC)c(Nc2nc(-c3ccc(O)c(O)c3)cs2)c1`, the AC50 is 39.8 µM [falling, single point]. On to `CCOC(=O)c1ccc(NC(=O)c2noc3c2CCCC3)cc1`, for which the AC50 is 0.631 µM [falling, full curve]. Take `COc1cccc(NC(=O)CSc2nnc(Cc3cccn3C)n2-c2ccc(F)cc2)c1`: the AC50 is 12.6 µM [falling, partial curve]. As for `O=C(CCC(=O)N1CCOc2ccccc21)NCc1cccs1`, the figure is 20 µM [rising, partial curve]; as for `O=S(=O)(NCCc1nnc2ccc(SCc3cccc(Cl)c3)nn12)c1ccccc1`, 25.1 µM [falling, partial curve]. In the case of `Cc1cc(N2CCN(C)CC2)nc2ccc(NC(=O)Nc3ccc(F)cc3)cc12` it was 12.6 µM [falling, single point]; in that of `CC(=O)N1CCCc2cc(S(=O)(=O)N3CCCC(C(=O)Nc4ccc(F)cc4F)C3)ccc21` (stereo not given), 0.158 µM [falling, full curve, poor fit]. In the case of `COc1ccc(Cn2c(CNC(=O)Cc3ccc(OC)c(OC)c3)nc3cccnc32)cc1`, the AC50 is 20 µM [rising, single point].

Consider `COc1ccc(CCNC(=O)c2ccc3nc(-c4ccco4)c(-c4ccco4)nc3c2)cc1OC`, for which the AC50 is 7.94 µM [falling, partial curve]. In the case of `Cc1ccc(NC(=O)CSc2nc(=O)n(Cc3ccncc3)c3c2CCC3)cc1Cl` it was 15.8 µM [falling, partial curve]; in that of `COc1ccc(Nc2ncc(C(=O)Nc3cccc(OC)c3)c3ccccc23)cc1`, 5.01 µM [falling, partial curve]. As for `Cc1cccc(OCCCC(=O)Nc2ccc(S(=O)(=O)Nc3onc(C)c3C)cc2)c1`, the figure is 12.6 µM [falling, partial curve]. On to `O=C(c1cccs1)c1ccc(-c2cccs2)s1`, for which the AC50 is 10 µM [falling, partial curve]. For the compound `Cc1ccc(NC(=O)NC(C)c2c(-n3cccc3)sc(C)c2C)c(C)c1` (stereo not given), the AC50 is 0.0398 µM [falling, full curve, poor fit].

In the case of `COc1ccc(NC(=O)c2ccco2)cc1NC(=O)c1cccc(C)c1OC`, the AC50 was 0.501 µM [rising, full curve, poor fit]. Take `Cc1ccc(C)c(N2CCN(C(=O)c3ccc(NS(=O)(=O)c4c(C)noc4C)cc3)CC2)c1`: the AC50 was 10 µM [falling, partial curve].

On to `O=C(Nc1ccccc1)C1CCN(S(=O)(=O)c2ccc3c(c2)CCCN3C(=O)C2CCC2)CC1`, for which the AC50 was 25.1 µM [falling, single point].

In the case of `COC(=O)c1[nH]c2cc(C)ccc2c1NC(=O)CN1CCc2cc(OC)c(OC)cc2C1`, the AC50 is 12.6 µM [falling, partial curve]. As for `CC1(C)CC(NC(=O)c2coc(=O)c(Br)c2)CC(C)(C)N1`, the figure is 31.6 µM [rising, single point] [measured here: IkB-luc green channel]; as for `CCN(CC)CCNC(=O)c1cc2c(-c3ccc(Cl)cc3)nn(C)c2s1`, 39.8 µM [rising, single point] [measured here: IkB-luc green channel]. As for `Cc1ccc2c(CN3CCN(c4ccc(Cl)cc4)CC3)cc(=O)oc2c1`, the figure is 39.8 µM [falling, single point]. Regarding `COc1ccc(C(=O)NCC(=O)OCc2cc(=O)n3nc(C4CCCCC4)sc3n2)cc1`, the AC50 is 0.501 µM [rising, full curve].

On to `CC(=O)c1ccc(NC(=O)c2cnc(N3CCCC3)nc2C)cc1`, for which the AC50 is 7.94 µM [rising, single point] [measured here: IkB-luc green channel].

In the case of `Cc1cc(C(=O)CSc2nnnn2C)c(C)n1-c1ccc2c(c1)OCCO2`, the AC50 is 20 µM [falling, single point].

Consider `O=C(C1CCCCC1)N(Cc1cccnc1)c1nc2ccc(Cl)cc2s1`, for which the AC50 was 6.31 µM [falling, partial curve]. In the case of `CCOc1ccc(CN(CCc2ccc3c(c2)OCO3)Cc2cc(OC)cc(OC)c2)cc1` it was 2.51 µM [falling, partial curve]; in that of `COc1ccc2nc(SCC(=O)N(C)C3CCCCC3)c(C#N)cc2c1`, 15.8 µM [falling, partial curve]; in that of `Cc1cc(=O)[nH]c2nnc(SCc3cccc(C(F)(F)F)c3)n12`, 15.8 µM [falling, partial curve, poor fit]. On to `COc1ccc(C(=O)Nc2ccc(-c3nc4cc(C)ccc4o3)c(O)c2)cc1`, for which the AC50 was 12.6 µM [falling, partial curve]. As for `Cc1nc(N2CCOCC2)c2c(C(=O)N3CCN(c4cccc(C(F)(F)F)c4)CC3)c(C)oc2n1`, the figure is 39.8 µM [falling, single point]; as for `Cc1cccc2nc(-c3ccc(Cl)s3)c(Nc3ccc4c(c3)OCCO4)n12`, 20 µM [falling, single point]; as for `Cc1ccc(OCC(=O)OCc2cc(=O)n3ccsc3n2)cc1C`, 0.501 µM [rising, full curve, poor fit]. In the case of `COc1ccccc1N1CCN(c2ncc3c(n2)CCN(Cc2ccccc2C)C3)CC1`, the AC50 is 20 µM [falling, partial curve]. As to `Cn1c(SCc2nc3ccccc3s2)nnc1-c1cccs1`, the AC50 is 15.8 µM [falling, partial curve].

Turning to `CCOC(=O)c1ccc(NC(=O)CCc2c(C)nc3cc(-c4ccc(OC)cc4OC)nn3c2C)cc1`, the AC50 was 0.501 µM [falling, full curve]. For the compound `CC(C)Oc1ccc(C(=O)N2CCC(c3nc4ccccc4s3)CC2)cc1`, the AC50 was 15.8 µM [falling, partial curve]. In the case of `Cc1ccc(SCCNC(=O)CN(c2cccc(C)c2C)S(C)(=O)=O)cc1`, the AC50 is 12.6 µM [falling, partial curve]. As for `Cc1cc(Oc2ccc(-c3ccccc3)cc2)n2ncnc2n1`, the AC50 was 6.31 µM [falling, partial curve]. For the compound `CC(C)(C)c1cc(C(c2cccnc2)N2CCN(CCO)CC2)cc(C(C)(C)C)c1O` (stereo not given), the AC50 was 25.1 µM [falling, single point]. With `CCOC(=O)c1c(C)oc2nc(C)nc(NCCc3ccc(OCC)cc3)c12`, the AC50 is 15.8 µM [falling, partial curve]. With `O=C(Nc1ccc(-n2nncc2-c2ccco2)cc1)c1ccc(F)cc1`, the AC50 was 20 µM [falling, partial curve]. For `N#CC1=C(N)NC(SCC(=O)Nc2ccccc2)=C(C#N)C12CCCC2`, the AC50 is 10 µM [falling, partial curve].

As to `O=S(=O)(c1ccccc1)N1CCN(c2cc(-c3ccccc3)nc3ncnn23)CC1`, the AC50 was 25.1 µM [rising, single point] [measured here: IkB-luc green channel]. In the case of `CCC(C)NC(=O)Cn1c(=O)n(-c2cc(OC)cc(OC)c2)c(=O)c2ccccc21` (stereo not given) it was 39.8 µM [falling, partial curve, poor fit]; in that of `Cc1ccc(-n2ncc(C(=O)NCc3cccs3)c2C2CCN(C(=O)OC(C)(C)C)CC2)cc1C`, 15.8 µM [falling, partial curve]; in that of `Cc1c(C(=O)OCCOc2ccccc2)[nH]c2c1C(=O)CCC2`, 12.6 µM [falling, partial curve]. As to `Cc1cccc(Cn2c(CNS(=O)(=O)c3ccc(Cl)s3)nc3cccnc32)c1`, the AC50 was 39.8 µM [falling, single point]. In the case of `CC(C)CN(CCNC(=O)c1cc(=O)[nH]c2ccc(S(=O)(=O)N3CCCCCC3)cc12)CC(C)C`, the AC50 is 7.94 µM [rising, partial curve]. As for `Cn1c(=O)oc2cc(S(=O)(=O)NCCC(=O)Nc3ccc(F)c(Cl)c3)ccc21`, the figure is 15.8 µM [falling, partial curve].

Consider `CCOc1ccc(NC(=O)CCCN2C(=O)C(c3ccccc3)Oc3cccnc32)cc1` (stereo not given), for which the AC50 is 0.2 µM [rising, full curve]. As for `CS(=O)(=O)c1ncc(N(Cc2ccccc2)Cc2ccco2)c(C(=O)Nc2cccc(C(F)(F)F)c2)n1`, the figure is 3.16 µM [falling, partial curve]; as for `CCOC(=O)c1c(NC(=O)c2cc(-c3ccccc3)on2)sc2c1CCCC2`, 12.6 µM [falling, partial curve]. As for `O=C(NCCc1ccc(Cl)cc1)c1ccc2nc(Cc3ccccc3)oc2c1`, the AC50 was 0.794 µM [falling, full curve].

For `Cc1cc(C)c(NC(=O)CSc2nc(=O)n(Cc3ccco3)c3c2CCC3)c(C)c1`, the AC50 was 3.16 µM [falling, partial curve]. In the case of `COc1cccc(-c2nc(SCc3cc(=O)c4cc(Cl)ccc4[nH]3)n[nH]2)c1`, the AC50 is 15.8 µM [falling, partial curve]. Take `CCCCC[C@H](O)/C=C\[C@H]1[C@H](C/C=C\CCCC(=O)O)[C@@H](O)C[C@H]1O` (tested in a mixture with another compound): the AC50 was 0.501 µM [rising, full curve].

On to `Cc1ccc(S(=O)(=O)Cn2nnnc2C(c2ccccn2)N2CCN(c3ccccc3)CC2)cc1` (stereo not given), for which the AC50 was 39.8 µM [rising, partial curve, poor fit] [measured here: IkB-luc green channel].

For `COc1cccc(-n2nnnc2SCC(=O)N2CCCc3ccccc32)c1`, the AC50 was 3.98 µM [falling, full curve, poor fit].

For `Cc1cc2c(cc1S(=O)(=O)Nc1cccc(C(F)(F)F)c1)OCCN2C`, the AC50 is 0.794 µM [falling, full curve].

Take `CC(C)Oc1ccc(CNC(=O)Cc2ccc(NC(=O)N3CCSc4ncccc43)cc2)cc1`: the AC50 was 15.8 µM [falling, partial curve].
